# Primary screen of a compound library

Protein sequences, listed by entry. Tags and fused reporters are not part of them. Residues count along the entry.
UniProt I6X8D2, whole entry: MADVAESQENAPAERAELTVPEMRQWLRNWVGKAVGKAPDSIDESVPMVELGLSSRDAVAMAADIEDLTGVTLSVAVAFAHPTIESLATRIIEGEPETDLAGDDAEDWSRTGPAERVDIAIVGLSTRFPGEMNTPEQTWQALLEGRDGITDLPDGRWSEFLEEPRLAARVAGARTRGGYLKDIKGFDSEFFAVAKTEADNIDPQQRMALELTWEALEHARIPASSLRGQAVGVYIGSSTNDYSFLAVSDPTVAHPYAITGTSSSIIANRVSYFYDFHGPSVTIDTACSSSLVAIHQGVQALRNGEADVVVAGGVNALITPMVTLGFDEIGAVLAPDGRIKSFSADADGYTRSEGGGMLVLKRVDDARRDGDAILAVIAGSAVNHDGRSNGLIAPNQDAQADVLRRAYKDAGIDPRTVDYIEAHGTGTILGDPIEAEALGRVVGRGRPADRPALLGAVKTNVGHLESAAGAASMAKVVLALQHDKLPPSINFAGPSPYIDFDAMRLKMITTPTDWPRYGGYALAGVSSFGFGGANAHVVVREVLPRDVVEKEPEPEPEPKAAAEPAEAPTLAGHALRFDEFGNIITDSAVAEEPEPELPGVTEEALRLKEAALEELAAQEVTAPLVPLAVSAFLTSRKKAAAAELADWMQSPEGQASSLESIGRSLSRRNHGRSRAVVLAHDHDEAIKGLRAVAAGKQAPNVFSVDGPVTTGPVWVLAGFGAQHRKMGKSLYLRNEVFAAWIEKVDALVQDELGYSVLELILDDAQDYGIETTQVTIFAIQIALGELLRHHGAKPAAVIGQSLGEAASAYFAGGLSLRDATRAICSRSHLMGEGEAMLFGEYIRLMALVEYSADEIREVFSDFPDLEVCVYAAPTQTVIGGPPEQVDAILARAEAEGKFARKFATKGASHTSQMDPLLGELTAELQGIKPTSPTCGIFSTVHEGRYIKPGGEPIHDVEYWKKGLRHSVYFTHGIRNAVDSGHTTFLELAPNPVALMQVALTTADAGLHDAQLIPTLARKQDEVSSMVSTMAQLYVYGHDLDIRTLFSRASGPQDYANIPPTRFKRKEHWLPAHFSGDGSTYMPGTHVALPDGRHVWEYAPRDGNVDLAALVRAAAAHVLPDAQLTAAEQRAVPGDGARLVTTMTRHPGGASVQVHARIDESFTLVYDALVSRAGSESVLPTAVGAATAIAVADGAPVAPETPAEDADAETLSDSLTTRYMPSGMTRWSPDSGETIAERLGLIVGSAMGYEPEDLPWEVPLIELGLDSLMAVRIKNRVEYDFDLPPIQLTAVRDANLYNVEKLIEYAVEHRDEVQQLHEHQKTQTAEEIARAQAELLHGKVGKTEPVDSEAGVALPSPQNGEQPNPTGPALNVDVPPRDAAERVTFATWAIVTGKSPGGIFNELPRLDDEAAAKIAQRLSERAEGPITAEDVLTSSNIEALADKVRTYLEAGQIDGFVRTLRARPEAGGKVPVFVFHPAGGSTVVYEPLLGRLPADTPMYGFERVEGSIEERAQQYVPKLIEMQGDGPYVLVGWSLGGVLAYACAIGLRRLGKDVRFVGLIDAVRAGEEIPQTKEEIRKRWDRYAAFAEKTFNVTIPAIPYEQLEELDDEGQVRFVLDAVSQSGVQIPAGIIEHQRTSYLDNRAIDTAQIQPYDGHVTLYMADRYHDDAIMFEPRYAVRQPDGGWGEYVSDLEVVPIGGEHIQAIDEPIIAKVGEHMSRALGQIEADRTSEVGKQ
UniProt Q8IDJ8, 1-583: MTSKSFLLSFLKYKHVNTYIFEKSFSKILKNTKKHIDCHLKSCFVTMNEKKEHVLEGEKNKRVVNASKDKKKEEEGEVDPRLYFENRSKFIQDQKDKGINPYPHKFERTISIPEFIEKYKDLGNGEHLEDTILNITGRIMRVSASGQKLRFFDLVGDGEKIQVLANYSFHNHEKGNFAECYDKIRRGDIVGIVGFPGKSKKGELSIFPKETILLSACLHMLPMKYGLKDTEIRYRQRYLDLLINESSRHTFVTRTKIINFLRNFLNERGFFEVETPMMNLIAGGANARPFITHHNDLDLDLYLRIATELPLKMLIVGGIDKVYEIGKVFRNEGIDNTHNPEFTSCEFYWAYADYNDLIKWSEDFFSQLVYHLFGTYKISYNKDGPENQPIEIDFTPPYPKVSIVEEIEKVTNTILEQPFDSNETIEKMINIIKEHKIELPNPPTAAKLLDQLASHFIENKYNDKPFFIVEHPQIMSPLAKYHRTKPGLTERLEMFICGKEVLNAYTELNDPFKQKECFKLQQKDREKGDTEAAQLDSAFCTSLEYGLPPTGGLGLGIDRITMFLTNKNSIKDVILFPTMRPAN
UniProt A4I591, 1-473: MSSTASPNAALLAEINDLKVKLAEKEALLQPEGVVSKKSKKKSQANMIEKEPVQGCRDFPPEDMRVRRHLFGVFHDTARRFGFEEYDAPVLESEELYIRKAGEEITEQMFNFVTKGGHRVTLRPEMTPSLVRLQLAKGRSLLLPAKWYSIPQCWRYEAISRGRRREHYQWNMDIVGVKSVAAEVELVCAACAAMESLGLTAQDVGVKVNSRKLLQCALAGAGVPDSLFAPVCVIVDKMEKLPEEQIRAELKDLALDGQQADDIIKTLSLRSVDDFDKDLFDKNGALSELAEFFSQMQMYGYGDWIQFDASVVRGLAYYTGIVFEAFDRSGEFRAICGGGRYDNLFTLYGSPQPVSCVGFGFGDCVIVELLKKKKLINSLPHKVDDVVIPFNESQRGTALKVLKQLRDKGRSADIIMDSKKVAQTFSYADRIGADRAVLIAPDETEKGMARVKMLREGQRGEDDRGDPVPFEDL
UniProt P9WFT3, whole entry: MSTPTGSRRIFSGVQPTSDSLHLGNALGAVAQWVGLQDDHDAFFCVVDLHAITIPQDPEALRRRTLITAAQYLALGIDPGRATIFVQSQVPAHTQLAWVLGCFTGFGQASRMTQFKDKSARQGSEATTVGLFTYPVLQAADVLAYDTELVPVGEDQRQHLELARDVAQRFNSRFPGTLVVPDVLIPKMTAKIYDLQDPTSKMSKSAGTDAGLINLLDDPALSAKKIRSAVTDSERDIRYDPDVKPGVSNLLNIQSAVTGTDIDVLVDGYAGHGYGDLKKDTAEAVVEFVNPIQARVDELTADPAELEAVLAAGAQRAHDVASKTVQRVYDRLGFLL

A: 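Enzyme assay of the thioesterase domain of polyketide synthase 13; the read-out is not stated. Target: Polyketide synthase Pks13, Mycobacterium tuberculosis (UniProt I6X8D2). Compounds at 30 µM. The record gives no direction; the compounds picked for IC50 retests had high values, so higher reads as stronger inhibition. Of about 67,000 compounds tested this way, about 300 (0.46%) reached 50% or more in at least one test.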
B: 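Enzyme assay of the cytosolic lysyl-tRNA synthetase in 384-well plates, read by luminescence. Target: Lysine-tRNA ligase, Plasmodium falciparum 3D7 (UniProt Q8IDJ8). Compounds at 30 µM. Direction is inferred from only a few compounds that gave an IC50; most scored high, so higher reads as stronger inhibition. About 69,000 compounds were tested under these conditions; 0.071% (about 49) showed 50% or more at least once.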
C: 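Enzyme assay of histidyl-tRNA synthetase; the read-out is not stated. Target: Histidine-tRNA ligase, Leishmania infantum (UniProt A4I591). Compounds at 30 µM. Direction is inferred from retests: higher values go with stronger inhibition. The assay is labelled LdHisRS but filed under L. infantum. Size under these conditions: about 69,000 compounds, about 410 of them at 50% or above in at least one test.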
D: 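Tryptophan-tRNA ligase, Mycobacterium tuberculosis (UniProt P9WFT3). Enzyme assay of tryptophanyl-tRNA synthetase; the read-out is not stated. Compounds at 10 µM. Direction is not recorded; retested compounds ran higher, which suggests that high means inhibition. About 65,000 compounds were tested under these conditions; 0.098% (about 64) showed 50% or more at least once.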

Each number is a percent effect as filed.
The record does not define 0% and 100%; most values in the screen are far below 50% and negative numbers occur (in some assays of this library far below -100).
Compounds were drawn at random from those tested, without regard to their results.
A dash means the value is not listed here; it may have been measured.

Compound,A,B,C,D
CC(Cn1cccn1)NC(=O)NCc1cccnc1OC(C)C (stereo not shown),-15.86,-0.5298,13.79,-9.118
Cc1ccc(CC(=O)NCC(Cc2ccc(F)cc2)C(N)=O)cn1 (stereo not shown),2.505,5.85,17.98,7.483
Cc1noc([C@@]23CCO[C@@H]2CCN(C(=O)c2cc(C)[nH]c2C)C3)n1,-31.09,5.754,25,-0.8364
CCc1cnc(N2C[C@H]3C[C@H](C(=O)NC4CCC4)[C@@H](C2)O3)nc1,-29.62,6.655,27.78,-1.022
Cc1ccc([C@@H]2CN(S(=O)(=O)N3CCC(C)CC3)C[C@H]2N(C)C)cc1,-43.75,2.28,11.48,-4.837
CC(C)c1sc(Cl)nc1C(=O)N1CCN(c2ccccc2)CC1,-,3.305,35,0.9492
CN(Cc1cnn(C)c1)C(=O)c1ccc(=O)n(C)n1,-35.25,2.124,20,0.3178
Cc1ccc(NC2CCCN(CCc3ccccc3)C2)nn1 (stereo not shown),-15.1,1.525,20.21,3.742
CCC1CN(C(=O)c2ccccc2C#N)CCN1C(C)C (stereo not shown),-10.57,6.016,17.81,2.169
Cc1ccc(-c2noc(CNCC3CN(C)CCO3)n2)cc1F (stereo not shown),-36.82,3.481,20,-2.687
COc1ccccc1C(=O)NS(=O)(=O)c1cncc(Br)c1,-27.73,-5.912,12.24,29.62
Cc1cccc(C(=O)NC2CCN(c3cnn(C)c3)C2=O)n1 (stereo not shown),-18.56,-0.7447,11.32,6.873
CCc1nc(N2CCCN(c3ncccn3)CC2)c2cnn(C)c2n1,-18.77,2.541,16.39,4.348
CCOCC(=O)N1CCC2(CC1)COCCN2CCN(C)C,-14.39,-1.604,6.944,-5.585
O=C1CO[C@@H]2CN(CC3CC3)C[C@H]2N1Cc1cccc(F)c1,-38.01,-8.452,5.882,8.807
O=C(Cn1cccnc1=O)NC(Cc1ccsc1)c1ccccn1 (stereo not shown),-26.01,1.699,19.44,1.923
CCCC1(CO)CCCN(c2ncnc3c2c(C)nn3C)C1 (stereo not shown),-12.44,1.473,16.39,4.509
CN(Cc1ccc(N(C)C)cc1)C(=O)c1cc2c([nH]c1=O)CCCC2=O,-21.31,0.2681,9.174,2.709
CC(C)N(C)Cc1cnc2n1CCN(Cc1ccc(F)cc1)C2,-8.462,7.063,15.07,2.884
O=C(Nc1cccc(-c2cscn2)c1)N1CCC2(CC1)CC(O)CO2 (stereo not shown),-15.92,-0.6481,15,-1.019
CC[C@@H]1N(Cc2ccco2)CCC[C@]12CCC(=O)N2C,-13.04,3.635,26.61,0.4975
Cc1cccc(C(=O)N2CCCC2c2c(C)n[nH]c2C)c1 (stereo not shown),25.75,-0.186,1.709,-5.353
CCOC[C@@H]1CC[C@H]2[C@H](CCN2C(=O)c2cnccn2)O1,-9.896,6.76,11.11,-2.269
CC(C)Cn1cnc(S(=O)(=O)Nc2cccnc2-n2cccn2)c1,-40.57,3.077,29.58,2.321
O=C1NC2(Cc3ccccc31)CN(CC1CCOCC1)C2,-21.64,-1.937,13.79,14.95
NS(=O)(=O)N1CCc2ccc(NC(=O)Cc3ccccc3F)cc21,-59.55,-1.034,23.29,3.086
Cn1ccc(C(=O)Nc2cccc(-c3ccc4c(c3)CCO4)n2)cc1=O,-15.51,5.844,5.759,-1.83
COc1ccc(Cl)cc1-n1cnc(CCNC(C)=O)c1,-8.094,1.053,24.19,-1.348
CCCC(C)NC(=O)c1ccc(-c2ccco2)[nH]c1=O (stereo not shown),-155,4.735,0,-4.886
CN1CCN(Cc2c(Cl)ccc(O)c2Cl)CC1C(=O)O (stereo not shown),10.3,2.507,12.24,3.524
COc1cc(CN[C@@H]2COC[C@H]2Cc2cc(C)no2)cc(OC)c1,4.996,1.422,10,-
CCN(C(=O)CN1CCn2c(C)nnc2C1)C1=CCCCC1,-10.65,4.051,17.95,-4.902
CN1CCOC(CNC(=O)COc2ccc(F)cc2F)C1 (stereo not shown),-20.44,0.8366,13.89,-2.941
CC(=O)Nc1ccc2nc(CN(C)Cc3snnc3C)ccc2c1,23.85,10.87,61.22,10.28
Cc1cnn(CC2CCCN2C(=O)c2ccc(OCC3CC3)nc2)c1 (stereo not shown),-17.73,-0.4484,2.778,-3.075
CN(C)c1nc2c(c(N3CCCC4(CC3)CNC(=O)O4)n1)CCCC2 (stereo not shown),-16.79,7.439,28.72,3.355
c1cnn(CC2CN(CC3CCCCC3)CCO2)c1 (stereo not shown),-34.21,1.514,8.547,1.193
CCOCc1nc(CSc2ccncc2)n(C)n1,-13.91,2.922,13.43,1.183
Cc1ncccc1CNCC1CCN(CC(O)c2ccccc2)CC1 (stereo not shown),-15.94,1.137,21.62,-0.6823
CNC(=O)c1nc2c(s1)CCN(C(=O)c1cccnc1)CC2,-8.527,-1.115,0,1.574
Cc1nc(C2CCCN2C(=O)CCCOc2ccccc2C)no1 (stereo not shown),-21.03,2.292,1.333,-3.802
Cc1nn(C)c(N(C)C)c1CNC(C)COc1ccc(F)cc1F (stereo not shown),-16.12,4.357,13.46,-9.717
O=C(CC(F)(F)F)N1CCCC(c2nccn2Cc2ccncc2)C1 (stereo not shown),14.64,5.113,17.74,-3.232
CN(C)C(=O)c1cnc2n1CCN(Cc1ccsc1)C2,5.323,-0.2015,2,-0.9382
CCC[C@H]1CN(CCS(C)(=O)=O)C[C@@H]1NC(=O)Cn1cc(C)cn1,1.375,7.869,13.11,-0.1575
CS(=O)(=O)N1CC(c2nc[nH]n2)c2cc(C(=O)NC3CC3)ccc21 (stereo not shown),-27.8,3.059,11.11,-2.364
NS(=O)(=O)NCC1(c2ccccc2Br)CC1,-16.42,0.26,8.889,-0.6173
Cc1cc(C(=O)NCCN2CCCC(C)C2)nn1C(C)(C)C (stereo not shown),4.456,-3.25,8.434,-1.989
CNC(=O)C1CCN(S(C)(=O)=O)CC1,-6.064,2.447,12.64,-3.018
CC(C)Nc1ccc(-c2ccnc3c2ccn3C)nn1,13.23,-3.444,26.32,2.183
CC(CN1CCN(C)CC1)NC(=O)c1cc(Cl)c2c(c1)OCO2 (stereo not shown),-5.659,-0.129,20.19,-0.5687
COCC1CCCN(C(=O)c2ccc(NC(=O)CC(C)C)c(C)c2)C1 (stereo not shown),-1.626,1.1,9.756,-3.712
CN(C)c1nc(N2CCCC2)nc2c1CCN(Cc1nccn1C)CC2,-6.354,0.4536,-1.98,-
Cn1cc(CN2CCCC3(CCN(C(=O)c4cnccn4)C3)C2)cn1 (stereo not shown),-,-3.739,14.71,6.667
CCC(CC)C(=O)N1CCC2(C1)CN(c1ccccc1)C(=O)CN2C (stereo not shown),-4.14,1.924,9.804,4.314
Cc1cccnc1CCNC(=O)[C@@]12CNC[C@@H]1CN(S(C)(=O)=O)C2,2.753,5.884,0,-1.71
O=C(O)c1ccn(-c2ccccc2NS(=O)(=O)c2ccccc2)n1,-9.189,7.831,8.738,-0.1776

The last 5 entries again:

For CN(C)c1nc(N2CCCC2)nc2c1CCN(Cc1nccn1C)CC2 the result was A: -6.354%; B: 0.4536%; C: -1.98%.
For Cn1cc(CN2CCCC3(CCN(C(=O)c4cnccn4)C3)C2)cn1 (stereo not shown) the result was B: -3.739%; C: 14.71%; D: 6.667%.
For CCC(CC)C(=O)N1CCC2(C1)CN(c1ccccc1)C(=O)CN2C (stereo not shown) the result was A: -4.14%; B: 1.924%; C: 9.804%; D: 4.314%.
For Cc1cccnc1CCNC(=O)[C@@]12CNC[C@@H]1CN(S(C)(=O)=O)C2 the result was A: 2.753%; B: 5.884%; C: 0%; D: -1.71%.
For O=C(O)c1ccn(-c2ccccc2NS(=O)(=O)c2ccccc2)n1 the result was A: -9.189%; B: 7.831%; C: 8.738%; D: -0.1776%.

Source: ChEMBL document CHEMBL3988442, “University of Dundee, Small-Polar-MMV Screening Library” (2021).